# Measured values taken from PMC6702834.
# Sequences of proteins named here, by UniProt entry; tags and fusion partners are left off. A change or cut given only in a name is not applied to a line headed by its entry.
# UniProt P16070: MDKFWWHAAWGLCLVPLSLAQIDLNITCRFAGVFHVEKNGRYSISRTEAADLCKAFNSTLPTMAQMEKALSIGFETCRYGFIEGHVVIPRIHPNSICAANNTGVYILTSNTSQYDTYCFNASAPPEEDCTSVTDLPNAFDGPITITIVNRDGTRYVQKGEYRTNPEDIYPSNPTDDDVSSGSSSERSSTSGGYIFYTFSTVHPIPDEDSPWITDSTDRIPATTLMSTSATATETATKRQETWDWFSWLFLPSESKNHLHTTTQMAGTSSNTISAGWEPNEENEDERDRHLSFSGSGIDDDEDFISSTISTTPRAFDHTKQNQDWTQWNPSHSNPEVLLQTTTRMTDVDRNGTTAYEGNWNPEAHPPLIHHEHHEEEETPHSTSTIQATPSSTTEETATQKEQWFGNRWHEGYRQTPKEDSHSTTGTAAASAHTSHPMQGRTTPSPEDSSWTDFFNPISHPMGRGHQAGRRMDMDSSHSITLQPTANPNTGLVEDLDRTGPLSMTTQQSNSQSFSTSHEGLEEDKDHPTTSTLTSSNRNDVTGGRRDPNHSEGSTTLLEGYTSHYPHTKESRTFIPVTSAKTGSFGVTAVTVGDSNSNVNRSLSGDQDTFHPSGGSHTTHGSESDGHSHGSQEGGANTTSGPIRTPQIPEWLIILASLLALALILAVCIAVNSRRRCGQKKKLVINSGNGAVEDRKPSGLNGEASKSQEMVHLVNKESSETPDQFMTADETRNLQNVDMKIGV
# UniProt Q01082: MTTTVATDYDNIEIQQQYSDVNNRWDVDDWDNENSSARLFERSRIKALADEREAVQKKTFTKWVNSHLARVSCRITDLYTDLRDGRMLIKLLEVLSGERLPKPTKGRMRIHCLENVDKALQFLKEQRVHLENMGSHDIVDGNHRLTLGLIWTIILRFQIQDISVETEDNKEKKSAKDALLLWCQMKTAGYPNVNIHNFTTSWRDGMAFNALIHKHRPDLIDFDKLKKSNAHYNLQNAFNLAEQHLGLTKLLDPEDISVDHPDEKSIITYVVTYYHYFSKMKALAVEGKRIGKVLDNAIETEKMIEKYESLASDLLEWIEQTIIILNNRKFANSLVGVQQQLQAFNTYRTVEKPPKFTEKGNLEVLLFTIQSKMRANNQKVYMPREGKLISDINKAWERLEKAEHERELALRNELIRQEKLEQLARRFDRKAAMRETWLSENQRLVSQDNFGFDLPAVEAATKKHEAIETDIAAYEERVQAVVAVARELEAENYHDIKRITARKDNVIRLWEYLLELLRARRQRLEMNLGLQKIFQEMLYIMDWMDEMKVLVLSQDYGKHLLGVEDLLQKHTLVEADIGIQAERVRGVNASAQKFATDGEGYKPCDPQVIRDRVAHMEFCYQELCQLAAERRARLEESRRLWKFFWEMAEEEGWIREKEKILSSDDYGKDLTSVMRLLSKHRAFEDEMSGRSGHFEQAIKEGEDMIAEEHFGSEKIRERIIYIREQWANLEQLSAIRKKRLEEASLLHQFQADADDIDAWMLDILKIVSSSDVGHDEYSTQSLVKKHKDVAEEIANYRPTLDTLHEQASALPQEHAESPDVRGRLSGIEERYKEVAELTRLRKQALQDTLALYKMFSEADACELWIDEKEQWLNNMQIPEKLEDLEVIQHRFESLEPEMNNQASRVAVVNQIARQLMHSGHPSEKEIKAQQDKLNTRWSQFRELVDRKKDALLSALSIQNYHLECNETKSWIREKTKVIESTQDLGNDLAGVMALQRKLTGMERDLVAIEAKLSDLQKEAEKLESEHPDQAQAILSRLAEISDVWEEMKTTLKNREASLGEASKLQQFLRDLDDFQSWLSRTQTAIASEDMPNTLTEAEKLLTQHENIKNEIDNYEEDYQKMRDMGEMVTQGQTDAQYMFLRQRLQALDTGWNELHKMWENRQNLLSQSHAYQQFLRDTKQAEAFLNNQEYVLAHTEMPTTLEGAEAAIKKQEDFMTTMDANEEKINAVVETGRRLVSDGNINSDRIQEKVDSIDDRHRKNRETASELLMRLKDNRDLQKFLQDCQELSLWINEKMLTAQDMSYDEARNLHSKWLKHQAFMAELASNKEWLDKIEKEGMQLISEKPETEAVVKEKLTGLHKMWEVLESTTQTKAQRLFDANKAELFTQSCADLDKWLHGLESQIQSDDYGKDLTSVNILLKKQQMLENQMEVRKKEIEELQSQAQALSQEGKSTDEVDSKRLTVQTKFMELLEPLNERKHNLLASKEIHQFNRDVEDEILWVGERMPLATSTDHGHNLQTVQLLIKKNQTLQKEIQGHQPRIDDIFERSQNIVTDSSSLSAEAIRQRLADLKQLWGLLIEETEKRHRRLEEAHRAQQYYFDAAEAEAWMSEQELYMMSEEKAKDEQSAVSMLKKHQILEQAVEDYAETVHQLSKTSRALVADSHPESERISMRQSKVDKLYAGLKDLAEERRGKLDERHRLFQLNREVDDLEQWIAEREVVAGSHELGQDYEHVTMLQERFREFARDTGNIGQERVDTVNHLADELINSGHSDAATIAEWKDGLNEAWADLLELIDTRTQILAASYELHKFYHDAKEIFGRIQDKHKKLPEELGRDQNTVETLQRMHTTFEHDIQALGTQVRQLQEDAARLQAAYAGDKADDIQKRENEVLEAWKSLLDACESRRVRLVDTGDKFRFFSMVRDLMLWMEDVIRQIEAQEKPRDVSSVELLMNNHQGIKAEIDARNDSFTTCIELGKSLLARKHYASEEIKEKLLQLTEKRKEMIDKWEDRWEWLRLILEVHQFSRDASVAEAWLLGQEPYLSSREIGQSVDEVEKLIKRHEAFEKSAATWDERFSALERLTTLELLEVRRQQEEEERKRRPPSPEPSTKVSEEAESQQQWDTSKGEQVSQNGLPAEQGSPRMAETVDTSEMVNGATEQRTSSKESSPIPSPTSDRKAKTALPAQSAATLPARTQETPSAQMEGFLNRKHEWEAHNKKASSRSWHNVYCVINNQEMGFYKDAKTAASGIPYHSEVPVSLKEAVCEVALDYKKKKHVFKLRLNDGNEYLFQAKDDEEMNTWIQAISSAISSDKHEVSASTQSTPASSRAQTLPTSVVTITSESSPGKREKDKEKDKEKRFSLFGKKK
# UniProt P49023: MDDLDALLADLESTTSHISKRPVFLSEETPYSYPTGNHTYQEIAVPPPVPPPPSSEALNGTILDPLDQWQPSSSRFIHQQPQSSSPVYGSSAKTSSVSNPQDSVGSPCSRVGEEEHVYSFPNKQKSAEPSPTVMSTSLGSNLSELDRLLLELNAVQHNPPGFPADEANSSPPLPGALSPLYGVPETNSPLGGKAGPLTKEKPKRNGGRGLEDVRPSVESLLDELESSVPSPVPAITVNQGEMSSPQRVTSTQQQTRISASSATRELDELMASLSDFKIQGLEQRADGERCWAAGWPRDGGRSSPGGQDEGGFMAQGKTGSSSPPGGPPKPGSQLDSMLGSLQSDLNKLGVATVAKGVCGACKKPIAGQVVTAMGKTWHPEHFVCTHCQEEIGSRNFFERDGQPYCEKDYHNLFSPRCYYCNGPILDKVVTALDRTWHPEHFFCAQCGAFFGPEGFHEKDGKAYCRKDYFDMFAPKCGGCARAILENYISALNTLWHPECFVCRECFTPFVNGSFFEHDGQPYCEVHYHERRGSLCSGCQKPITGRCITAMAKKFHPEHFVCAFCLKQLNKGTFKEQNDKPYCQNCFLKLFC
# UniProt P11055: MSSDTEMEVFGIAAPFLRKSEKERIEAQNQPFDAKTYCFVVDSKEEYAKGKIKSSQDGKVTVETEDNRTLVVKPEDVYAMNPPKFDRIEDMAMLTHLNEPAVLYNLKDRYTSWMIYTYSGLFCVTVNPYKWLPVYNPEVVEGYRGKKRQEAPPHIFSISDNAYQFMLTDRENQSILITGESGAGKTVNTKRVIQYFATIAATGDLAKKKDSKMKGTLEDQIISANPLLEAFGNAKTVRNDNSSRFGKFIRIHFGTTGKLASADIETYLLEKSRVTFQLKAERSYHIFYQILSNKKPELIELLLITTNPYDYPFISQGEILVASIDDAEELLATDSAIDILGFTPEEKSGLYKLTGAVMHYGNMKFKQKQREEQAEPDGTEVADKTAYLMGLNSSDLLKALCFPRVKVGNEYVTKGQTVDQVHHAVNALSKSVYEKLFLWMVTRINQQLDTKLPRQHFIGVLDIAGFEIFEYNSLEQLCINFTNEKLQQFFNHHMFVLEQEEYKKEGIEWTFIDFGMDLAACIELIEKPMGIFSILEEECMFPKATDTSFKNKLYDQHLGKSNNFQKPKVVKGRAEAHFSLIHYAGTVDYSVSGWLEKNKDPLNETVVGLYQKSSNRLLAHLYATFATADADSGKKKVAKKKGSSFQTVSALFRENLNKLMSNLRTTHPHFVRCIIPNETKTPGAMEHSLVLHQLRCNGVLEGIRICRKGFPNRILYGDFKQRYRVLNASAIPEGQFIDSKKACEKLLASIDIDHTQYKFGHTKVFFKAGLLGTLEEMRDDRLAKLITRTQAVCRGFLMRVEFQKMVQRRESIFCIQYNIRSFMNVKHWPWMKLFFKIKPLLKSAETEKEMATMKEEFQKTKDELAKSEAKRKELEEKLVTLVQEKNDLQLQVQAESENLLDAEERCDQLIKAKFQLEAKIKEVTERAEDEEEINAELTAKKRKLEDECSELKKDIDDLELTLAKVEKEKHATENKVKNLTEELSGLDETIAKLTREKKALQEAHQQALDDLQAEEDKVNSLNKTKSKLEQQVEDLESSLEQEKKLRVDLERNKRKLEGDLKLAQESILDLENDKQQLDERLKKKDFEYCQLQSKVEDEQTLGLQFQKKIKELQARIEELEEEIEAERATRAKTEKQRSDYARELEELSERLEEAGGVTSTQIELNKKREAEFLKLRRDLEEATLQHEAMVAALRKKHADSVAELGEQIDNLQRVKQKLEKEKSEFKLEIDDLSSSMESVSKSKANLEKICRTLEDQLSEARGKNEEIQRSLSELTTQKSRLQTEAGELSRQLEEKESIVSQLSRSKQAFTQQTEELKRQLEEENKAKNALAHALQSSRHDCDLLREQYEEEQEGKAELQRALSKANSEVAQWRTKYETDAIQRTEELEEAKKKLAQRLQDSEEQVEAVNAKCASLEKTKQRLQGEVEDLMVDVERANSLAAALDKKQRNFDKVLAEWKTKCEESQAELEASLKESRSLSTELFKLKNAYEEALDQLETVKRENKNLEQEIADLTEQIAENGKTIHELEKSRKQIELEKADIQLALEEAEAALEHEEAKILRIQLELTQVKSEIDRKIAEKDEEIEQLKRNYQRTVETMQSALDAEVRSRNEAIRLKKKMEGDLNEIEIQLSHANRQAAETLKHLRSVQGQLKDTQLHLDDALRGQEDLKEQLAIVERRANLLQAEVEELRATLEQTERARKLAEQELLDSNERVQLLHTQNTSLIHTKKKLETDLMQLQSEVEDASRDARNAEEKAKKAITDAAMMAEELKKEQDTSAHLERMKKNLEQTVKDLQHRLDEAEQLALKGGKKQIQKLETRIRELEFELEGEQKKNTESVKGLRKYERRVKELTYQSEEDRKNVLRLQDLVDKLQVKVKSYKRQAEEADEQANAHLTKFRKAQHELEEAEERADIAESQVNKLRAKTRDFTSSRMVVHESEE
# No constants are given. Whether binding was seen depends on the method and setting. In cells and extracts the contact can be indirect. These calls come from enrichment with a bait or labelling near it, and not all partners need be listed.
# B1: Putative helicase MOV-10 (protein, UniProt Q9HCE1 1-1003)
# chain: MPSKFSCRQLREAGQCFESFLVVRGLDMETDRERLRTIYNRDFKISFGTPAPGFSSMLYGMKIANLAYVTKTRVRFFRLDRWADVRFPEKRRMKLGSDISKHHKSLLAKIFYDRAEYLHGKHGVDVEVQGPHEARDGQLLIRLDLNRKEVLTLRLRNGGTQSVTLTHLFPLCRTPQFAFYNEDQELPCPLGPGECYELHVHCKTSFVGYFPATVLWELLGPGESGSEGAGTFYIARFLAAVAHSPLAAQLKPMTPFKRTRITGNPVVTNRIEEGERPDRAKGYDLELSMALGTYYPPPRLRQLLPMLLQGTSIFTAPKEIAEIKAQLETALKWRNYEVKLRLLLHLEELQMEHDIRHYDLESVPMTWDPVDQNPRLLTLEVPGVTESRPSVLRGDHLFALLSSETHQEDPITYKGFVHKVELDRVKLSFSMSLLSRFVDGLTFKVNFTFNRQPLRVQHRALELTGRWLLWPMLFPVAPRDVPLLPSDVKLKLYDRSLESNPEQLQAMRHIVTGTTRPAPYIIFGPPGTGKTVTLVEAIKQVVKHLPKAHILACAPSNSGADLLCQRLRVHLPSSIYRLLAPSRDIRMVPEDIKPCCNWDAKKGEYVFPAKKKLQEYRVLITTLITAGRLVSAQFPIDHFTHIFIDEAGHCMEPESLVAIAGLMEVKETGDPGGQLVLAGDPRQLGPVLRSPLTQKHGLGYSLLERLLTYNSLYKKGPDGYDPQFITKLLRNYRSHPTILDIPNQLYYEGELQACADVVDRERFCRWAGLPRQGFPIIFHGVMGKDEREGNSPSFFNPEEAATVTSYLKLLLAPSSKKGKARLSPRSVGVISPYRKQVEKIRYCITKLDRELRGLDDIKDLKVGSVEEFQGQERSVILISTVRSSQSFVQLDLDFNLGFLKNPKRFNVAVTRAKALLIIVGNPLLLGHDPDWKVFLEFCKENGGYTGCPFPAKLDLQQGQNLLQGLSKLSPSTSGPHSHDYLPQEREGEGGLSLQVEPEWRNEL
# B2: Unconventional myosin-Id (protein, UniProt O94832 1-1006)
# chain: MAEQESLEFGKADFVLMDTVSMPEFMANLRLRFEKGRIYTFIGEVVVSVNPYKLLNIYGRDTIEQYKGRELYERPPHLFAIADAAYKAMKRRSKDTCIVISGESGAGKTEASKYIMQYIAAITNPSQRAEVERVKNMLLKSNCVLEAFGNAKTNRNDNSSRFGKYMDINFDFKGDPIGGHINNYLLEKSRVIVQQPGERSFHSFYQLLQGGSEQMLRSLHLQKSLSSYNYIHVGAQLKSSINDAAEFRVVADAMKVIGFKPEEIQTVYKILAAILHLGNLKFVVDGDTPLIENGKVVSIIAELLSTKTDMVEKALLYRTVATGRDIIDKQHTEQEASYGRDAFAKAIYERLFCWIVTRINDIIEVKNYDTTIHGKNTVIGVLDIYGFEIFDNNSFEQFCINYCNEKLQQLFIQLVLKQEQEEYQREGIPWKHIDYFNNQIIVDLVEQQHKGIIAILDDACMNVGKVTDEMFLEALNSKLGKHAHFSSRKLCASDKILEFDRDFRIRHYAGDVVYSVIGFIDKNKDTLFQDFKRLMYNSSNPVLKNMWPEGKLSITEVTKRPLTAATLFKNSMIALVDNLASKEPYYVRCIKPNDKKSPQIFDDERCRHQVEYLGLLENVRVRRAGFAFRQTYEKFLHRYKMISEFTWPNHDLPSDKEAVKKLIERCGFQDDVAYGKTKIFIRTPRTLFTLEELRAQMLIRIVLFLQKVWRGTLARMRYKRTKAALTIIRYYRRYKVKSYIHEVARRFHGVKTMRDYGKHVKWPSPPKVLRRFEEALQTIFNRWRASQLIKSIPASDLPQVRAKVAAVEMLKGQRADLGLQRAWEGNYLASKPDTPQTSGTFVPVANELKRKDKYMNVLFSCHVRKVNRFSKVEDRAIFVTDRHLYKMDPTKQYKVMKTIPLYNLTGLSVSNGKDQLVVFHTKDNKDLIVCLFSKQPTHESRIGELVGVLVNHFKSEKRHLQVNVTNPVQCSLHGKKCTVSVETRLNQPQPDFTKNRSGFILSVPGN
# Target: CD44 variant 6 isoform (human (endogenous in A818.4 and Capan1)) (UniProt P16070)
# Experiment: affinity purification with mass spectrometry; A818.4 (also Capan1) wt and CD44v6kd cells and TEX mildly lysed, precipitated with anti-CD44, Nano-LC-ESI-MS/MS; proteins found in wt but not in CD44v6kd precipitates are called CD44v6-associated
row,binding,Molecule
1,binds,"Spectrin beta chain, nonerythrocytic 1 (from UniProt Q01082 1-2364)"
2,binds,clathrin heavy chain 1 (from UniProt Q00610 1-1675)
3,binds,paxillin (from UniProt P49023 1-591)
4,binds,Myosin-3 (from UniProt P11055 1-1940)
5,binds,Endoribonuclease Dicer (from UniProt Q9UPY3 1-1922) (enzyme)
6,binds,FAK (from UniProt Q05397 1-1052) (enzyme)
7,binds,chondroitin sulfate proteoglycan 4 (from UniProt Q6UVK1 30-2322)

# Target: CD44 variant 6 isoform (human (endogenous in A818.4 and Capan1)) (UniProt P16070)
# Experiment: as above
# Remark: another data set of the same source
row,binding,Molecule
1,binds,B1
2,binds,B2
